Square brackets hold non-standard residues; d marks the D form. Peptide text beside a SMILES is read from it. * marks the point of attachment. Palmitoyl = CCCCCCCCCCCCCCCC(=O)*; Dab = NCC[C@H](N)C(=O)O
Key:
[1] = system: POPG large unilamellar vesicles (LUVs); assay: Isothermal titration calorimetry, binding to POPG; conditions: ITC, 1.3 mM POPG LUVs titrated into 0.05 or 0.1 mM lipopeptide, PBS, 298.15 K; single transition or first line of two binding events
Method: (§1) Isothermal titration calorimetry (ITC) experiments were carried out at 298.15 K using an AutoITC isothermal titration calorimeter (MicroCal Inc., GE Healthcare, Northampton, MA, USA) equipped with a 1.4491 mL sample cell and a reference cell. A typical ITC experiment involved a series of consecutive injections of 10.02 µL aliquots of the titrant (2 µL for the first injection only) into the reaction cell, at an interval of 4 min. The stirrer speed was constantly kept at 300 rpm to provide thorough mixing inside the reaction cell. Three types of ITC experiments were performed. These included lipopeptides binding to POPG, POPC, and LPS. The experiments were carried out by titration of 1.3 mM POPG or POPC LUVs into 0.05 or 0.1 mM lipopeptide solutions and the titration of 0.5 or 0.75 mM lipopeptide solution into 200 or 400 µg/mL LPS solution. The molecular mass of LPS was assumed to be 20,000 Da. To assess the heat of dilution, control experiments were performed by titration of an appropriate titrant into PBS. Final results were evaluated with an ITC module for ORIGIN 7 software, provided by MicroCal, Inc. (Northampton, MA, USA). The binding constant, stoichiometry, and enthalpy of interactions were directly determined from ITC experiment by fitting one of the built-in curve fitting models to the experimental data points. Changes in entropy (∆S°) and the Gibbs free energy (∆G°) were calculated from the following equation: ∆G^°=−RTln(55.5Ka)=∆H^°−T∆S^° where 55.5 is the molar concentration of water, R is the gas constant (1.986 cal·mol^−1·K^−1), and T is the absolute temperature.

[2] = system: lipopolysaccharide (LPS) E. coli 055:B5; assay: Isothermal titration calorimetry, binding to LPS; conditions: ITC
Method: as §1

[3] = two sets of sites model, site 2

Question: How did the “n (stoichiometry), POPG” value [1] turn out when `CCCCCCCCCCCCCCCC(=O)NCCCC[C@H](NC(=O)[C@@H](N)CCCCN)C(=O)N[C@@H](CCCCN)C(N)=O` [K(KC16)K-NH2] was run?
Answer: 1.13 ± 0.03

Question: For `CCCCCCCCCCCCCCCC(=O)NCCCC[C@H](NC(=O)[C@H](CCCCN)NC(=O)[C@@H](N)CCCCN)C(=O)N[C@@H](CCCCN)C(=O)N[C@@H](CCCCN)C(N)=O` [KK(KC16)KK-NH2] (H-KKK(Palmitoyl)KK-NH2), which “ΔG°, LPS E. coli 055:B5” value ([2]; calculated, site 1) is on record?
Answer: -12.83 ± 0.40 kcal/mol

Question: What about the “ΔG°, LPS E. coli 055:B5” value ([2]; calculated, site 2) of the same compound?
Answer: -11.07 ± 0.19 kcal/mol

Question: And the “TΔS°, LPS E. coli 055:B5” value ([2]; calculated, site 2 (enthalpy-driven))?
Answer: -2.09 ± 1.43 kcal/mol

Question: What about the “ΔH1°, LPS E. coli 055:B5” value ([2]; two sets of sites model, site 1) of the same compound?
Answer: -1.96 ± 0.50 kcal/mol

Question: What about the “n2 (stoichiometry), LPS E. coli 055:B5” value [2, 3] of the same compound?
Answer: 0.67 ± 0.06

Question: What about the “ΔH2°, LPS E. coli 055:B5” value [2, 3] of the same compound?
Answer: -13.16 ± 1.42 kcal/mol

Question: Which “n (stoichiometry), POPG” value [1] does the source give for `CCCCCCCCCCCCCCCC(=O)NCCC[C@H](NC(=O)[C@@H](N)CCCCN)C(=O)N[C@@H](CCCCN)C(N)=O` [K(OC16)K-NH2] here?
Answer: 1.59 ± 0.03

Question: How did the “n (stoichiometry), POPG” value [1] turn out when `CCCCCCCCCCCCCCCC(=O)NCC[C@H](NC(=O)[C@@H](N)CCCCN)C(=O)N[C@@H](CCCCN)C(N)=O` [K(DabC16)K-NH2] (H-Lys-[Dab](Palmitoyl)-Lys-NH2) was run?
Answer: 0.73 ± 0.06

Reference: PMC7728077, “Double-Headed Cationic Lipopeptides: An Emerging Class of Antimicrobials” (International Journal of Molecular Sciences, 2020)
